Results: US20240197761A1, “FUCOSYLATION AND IMMUNE MODULATION IN CANCER” (H. LEE MOFFITT CANCER CENTER AND RESEARCH INSTITUTE, INC., priority 2021, published 2024)
Some results were stated once for a whole list of compounds, not compound by compound.

System: SW1 tumors
Experiment: Anti-PD-1 mouse model, SW1
Type: in vivo, C3H/HeN mice
Conditions: SW1 model (FIG. 21a left)
Text: FIGS. 21A and 21B Administration of combination L-fucose and anti-PD-1 suppresses tumors and increases intra-tumoral CD4+T central and effector memory cells (a) Volumetric growth curves for SW1 tumors in C3H/HeN mice (left) and SM1 tumors in C57BL/6 mice (right) fed L-fucose (LF) and treated with PBS (control) or anti-PD-1. (concurrent initiation of LF anti-PD1 (▾)). The tumor growth curves are means±SEM from ≥7 mice per group. (b) Volumetric growth curves for SM1 tumors in C57BL/6 mice fed ±L-fucose (LF) and treated with PBS (control) or anti-PD-1 (PD-1). (concurrent initiation of LF±PD1 (▾)). The tumor growth curves are means±SEM from ≥7 mice per group. *=p<0.05. At Day 7 (prior to administration of LF or PD1), Day 21 (endpoint for tumors of control-treated mice), Day 31 (endpoint for tumors of LF-treated mice), Day 63 (endpoint for tumors of PD1-treated mice), the primary tumors (Tumor) and draining lymph nodes (LN) of 4-5 mice per treatment group were analyzed by flow cytometry for intratumor levels of CD4+ and CD8+T subpopulations (naive/terminal, stem central/central/effector memory) and dendritic cell (DC) subpopulations (cDC1, cDC2, and monocyte-derived DC (moDC)) as in FIG. 15. Proportions of CD4+, CD8+, and DC subpopulations in each organ at each timepoints are represented by the color-coded pie charts (each pie chart represents 4-5 mice). […]

`C[C@H](O)[C@@H](O)[C@@H](O)[C@H](O)C=O` [L-fucose] was tested, and the tumor suppression was 50-60%.
